Laboratory results as given in US7767669B2, “Small molecule PI 3-kinase inhibitors and methods of their use” (Novartis AG, priority 2002, dated 2010).
Some results were stated once for a whole list of compounds, not compound by compound.

Columns and labels:
[1] = biological target: PI3 kinase; experiment: PI3K homogenous solution phase assay (Method 1); format: biochemical; conditions: homogeneous solution assay (Method 1); read-out: IC50 value with respect to PI3K
[2] = biological target: PI3 kinase; experiment: PI3K one step solid phase assay (Method 2); format: biochemical; conditions: read-out: IC50 value with respect to PI3K

SMILES	IC50 [1] [µM]	IC50 [2] [µM]
COc1cccc(-c2cc(Nc3ccc4[nH]ncc4c3)nc(N3CCOCC3)n2)c1 [Example 55, N-[6-(3-methoxyphenyl)-2-morpholin-4-ylpyrimidin-4-yl]-1H-indazol-5-amine]	< 20	< 20
Oc1cccc(-c2cc(NCCc3ccncc3)nc(N3CCOCC3)n2)c1 [Example 57, 3-{2-morpholin-4-yl-6-[(2-pyridin-4-ylethyl)amino]pyrimidin-4-yl}phenol]	< 20	< 20
COc1ccc(Nc2cc(-c3cccc(O)c3)nc(N3CCOCC3)n2)cn1 [Example 58, 3-{6-[(6-methoxypyridin-3-yl)amino]-2-morpholin-4-ylpyrimidin-4-yl}phenol]	< 20	< 20
Oc1cccc(-c2cc(N(Cc3ccccc3)Cc3nccs3)nc(N3CCOCC3)n2)c1 [Example 61, 3-{6-[benzyl(1,3-thiazol-2-ylmethyl)amino]-2-morpholin-4-ylpyrimidin-4-yl}phenol]	< 20	
COc1cc(Nc2cc(-c3cccc(O)c3)nc(N3CCOCC3)n2)cc(OC)c1OC [Example 64, 3-{2-morpholin-4-yl-6-[(3,4,5-trimethoxyphenyl)amino]pyrimidin-4-yl}phenol]	< 20	
Oc1cccc(-c2cc(Nc3ccc4nc[nH]c4c3)nc(N3CCOCC3)n2)c1 [Example 68, 3-[6-(1H-benzimidazol-6-ylamino)-2-morpholin-4-ylpyrimidin-4-yl]phenol]	< 20	
OCC1CCCN1c1cc(-c2cccc(O)c2)nc(N2CCOCC2)n1 (stereo not drawn) [Example 76, 3-{6-[2-(hydroxymethyl)pyrrolidin-1-yl]-2-morpholin-4-ylpyrimidin-4-yl}phenol]	< 20	
Oc1cccc(-c2cc(Nc3cc(-c4ccccc4)ccc3O)nc(N3CCOCC3)n2)c1 [Example 115, 3-{[6-(3-hydroxyphenyl)-2-morpholin-4-ylpyrimidin-4-yl]amino}-1,1′-biphenyl-4-ol]		< 20
COc1cc(Nc2ccccc2)ccc1Nc1cc(-c2cccc(O)c2)nc(N2CCOCC2)n1 [Example 116, 3-{6-[(4-anilino-2-methoxyphenyl)amino]-2-morpholin-4-ylpyrimidin-4-yl}phenol]		< 20
CCn1c(C)nc2cc(Nc3cc(-c4cccc(O)c4)nc(N4CCOCC4)n3)ccc21 [Example 117, 3-{6-[(1-ethyl-2-methyl-1H-benzimidazol-5-yl)amino]-2-morpholin-4-ylpyrimidin-4-yl}phenol]		< 20
COc1ccc(Nc2cc(-c3ccccc3)nc(N3CCOCC3)n2)cc1O [Example 120, 2-methoxy-5-[(2-morpholin-4-yl-6-phenylpyrimidin-4-yl)amino]phenol]		< 20
Nc1cc(-c2cccc(O)c2)nc(N2CCOCC2)n1 [Example 121, 3-(6-amino-2-morpholin-4-ylpyrimidin-4-yl)phenol]	< 20	
COc1cccc(-c2nc(N3CCOCC3)nc(Nc3cccnc3)c2C(=O)O)c1 [Example 123, 4-(3-methoxyphenyl)-2-morpholin-4-yl-6-(pyridin-3-ylamino)pyrimidine-5-carboxylic acid]		< 20
O=C(CN1CCN(c2cc(-c3cccc(O)c3)nc(N3CCOCC3)n2)CC1)N1CCOCC1 [Example 125, 3-{2-morpholin-4-yl-6-[4-(2-morpholin-4-yl-2-oxoethyl)piperazin-1-yl]pyrimidin-4-yl}phenol]		< 20
Oc1cccc(-c2cc(N3CCN(CCc4ccccc4)CC3)nc(N3CCOCC3)n2)c1 [Example 127, 3-{2-morpholin-4-yl-6-[4-(2-phenylethyl)piperazin-1-yl]pyrimidin-4-yl}phenol]		< 20
Oc1cccc(-c2cc(Nc3ccc4c(c3)OCCCO4)nc(N3CCOCC3)n2)c1 [Example 129, 3-[6-(3,4-dihydro-2H-1,5-benzodioxepin-7-ylamino)-2-morpholin-4-ylpyrimidin-4-yl]phenol]		< 20
COc1ccc(Nc2cc(-c3cccc(O)c3)nc(N3CCOCC3)n2)cc1OC1CCCC1 [Example 130, 3-(6-{[3-(cyclopentyloxy)-4-methoxyphenyl]amino}-2-morpholin-4-ylpyrimidin-4-yl)phenol]		< 20
Fc1cccc(-c2cc(Nc3cccnc3)nc(N3CCOCC3)n2)c1 [Example 134, 6-(3-fluorophenyl)-2-morpholin-4-yl-N-pyridin-3-ylpyrimidin-4-amine]	< 20	
FC(F)(F)c1cccc(-c2cc(Nc3cccnc3)nc(N3CCOCC3)n2)c1 [Example 135, 2-morpholin-4-yl-N-pyridin-3-yl-6-[3-(trifluoromethyl)phenyl]pyrimidin-4-amine]	< 20	
COc1cccc(-c2cc(Nc3cccnc3)nc(N3CCOCC3)n2)c1 [Example 136, 6-(3-methoxyphenyl)-2-morpholin-4-yl-N-pyridin-3-ylpyrimidin-4-amine]	< 20	
Oc1cccc(-c2cc(Nc3cnccn3)nc(N3CCOCC3)n2)c1 [Example 138, 3-[2-morpholin-4-yl-6-(pyrazin-2-ylamino)pyrimidin-4-yl]phenol]	< 20	
Oc1cccc(-c2cc(Nc3cccc4cnccc34)nc(N3CCOCC3)n2)c1 [Example 139, 3-[6-(isoquinolin-5-ylamino)-2-morpholin-4-ylpyrimidin-4-yl]phenol]	< 20	
Oc1cccc(-c2cc(Nc3ccc4ncccc4c3)nc(N3CCOCC3)n2)c1 [Example 140, 3-[2-morpholin-4-yl-6-(quinolin-6-ylamino)pyrimidin-4-yl]phenol]	< 20	
Oc1cccc(-c2cc(Nc3cnc4ccccc4c3)nc(N3CCOCC3)n2)c1 [Example 141, 3-[2-morpholin-4-yl-6-(quinolin-3-ylamino)pyrimidin-4-yl]phenol]	< 20	
Oc1cccc(-c2cc(Nc3ccccn3)nc(N3CCOCC3)n2)c1 [Example 142, 3-[2-morpholin-4-yl-6-(pyridin-2-ylamino)pyrimidin-4-yl]phenol]	< 20	
Cc1ccc(O)cc1-c1cc(Nc2cccnc2)nc(N2CCOCC2)n1 [Example 156, 4-methyl-3-[2-morpholin-4-yl-6-(pyridin-3-ylamino)pyrimidin-4-yl]phenol]	< 20	

Continued, values first:

IC50 [1] [µM]	IC50 [2] [µM]	SMILES
< 20		OCCOc1cccc(-c2cc(Nc3ccc4[nH]ncc4c3)nc(N3CCOCC3)n2)c1 [Example 13]
< 20		c1ccc(-c2cc(Nc3ccc4[nH]ncc4c3)nc(N3CCOCC3)n2)cc1 [Example 19, N-(2-morpholin-4-yl-6-phenylpyrimidin-4-yl)-1H-indazol-5-amine]
< 20		Oc1cccc(-c2cc(Nc3ccc4c(c3)CCC4)nc(N3CCOCC3)n2)c1 [Example 35, 3-[6-(2,3-dihydro-1H-inden-5-ylamino)-2-morpholin-4-ylpyrimidin-4-yl]phenol]
< 20		Oc1cccc(-c2cc(Nc3ccc4c(c3)Cc3ccccc3-4)nc(N3CCOCC3)n2)c1 [Example 36, 3-[6-(9H-fluoren-2-ylamino)-2-morpholin-4-ylpyrimidin-4-yl]phenol]
< 20		Oc1cccc(-c2cc(Nc3ccc4c(c3)OCCO4)nc(N3CCOCC3)n2)c1 [Example 37, 3-[6-(2,3-dihydro-1,4-benzodioxin-6-ylamino)-2-morpholin-4-ylpyrimidin-4-yl]phenol]
< 20		COc1ccc(Nc2cc(-c3cccc(O)c3)nc(N3CCOCC3)n2)cc1OC [Example 38, 3-{6-[(3,4-dimethoxyphenyl)amino]-2-morpholin-4-ylpyrimidin-4-yl}phenol]
< 20		Oc1cccc(-c2cc(Nc3ccc4c(c3)OCO4)nc(N3CCOCC3)n2)c1 [Example 41, 3-[6-(1,3-benzodioxol-5-ylamino)-2-morpholin-4-ylpyrimidin-4-yl]phenol]
< 20		COc1ccc(Nc2cc(-c3cccc(O)c3)nc(N3CCOCC3)n2)cc1Cl [Example 42, 3-{6-[(3-chloro-4-methoxyphenyl)amino]-2-morpholin-4-ylpyrimidin-4-yl}phenol]
< 20		COc1ccc(Nc2cc(-c3cccc(O)c3)nc(N3CCOCC3)n2)cc1O [Example 43, 5-{[6-(3-hydroxyphenyl)-2-morpholin-4-ylpyrimidin-4-yl]amino}-2-methoxyphenol]
< 20		COc1ccc(Nc2cc(-c3cccc(O)c3)nc(N3CCOCC3)n2)cc1F [Example 44, 3-{6-[(3-fluoro-4-methoxyphenyl)amino]-2-morpholin-4-ylpyrimidin-4-yl}phenol]
< 20		O=c1[nH]c2ccc(Nc3cc(-c4cccc(O)c4)nc(N4CCOCC4)n3)cc2[nH]1 [Example 45, 5-{[6-(3-hydroxyphenyl)-2-morpholin-4-ylpyrimidin-4-yl]amino}-1,3-dihydro-2H-benzimidazol-2-one]
< 20		Cc1ccc(Nc2cc(-c3cccc(O)c3)nc(N3CCOCC3)n2)cc1C [Example 46, 3-{6-[(3,4-dimethylphenyl)amino]-2-morpholin-4-ylpyrimidin-4-yl}phenol]
< 20	< 20	Oc1cccc(-c2cc(N3CCOCC3)nc(N3CCOCC3)n2)c1 [Example 47, 3-(2,6-dimorpholin-4-pyrimidin-4-yl)phenol]
< 20		O=[N+]([O-])c1cc(Nc2cc(-c3cccc(O)c3)nc(N3CCOCC3)n2)ccc1O [Example 48, 4-{[6-(3-hydroxyphenyl)-2-morpholin-4-ylpyrimidin-4-yl]amino}-2-nitrophenol]
< 20		Oc1cccc(-c2cc(Nc3ccc(O)c(Cl)c3)nc(N3CCOCC3)n2)c1 [Example 49, 2-chloro-4-{[6-(3-hydroxyphenyl)-2-morpholin-4-ylpyrimidin-4-yl]amino}phenol]
< 20		Oc1cccc(-c2cc(Nc3ccc4[nH]ncc4c3)nc(N3CCCCCC3)n2)c1 [Example 51, 3-[2-azepan-1-yl-6-(1H-indazol-5-ylamino)pyrimidin-4-yl]phenol]
< 20		Oc1cccc(-c2cc(Nc3ccc4[nH]ncc4c3)nc(N3CCCNCC3)n2)c1 [Example 52, 3-[2-(1,4-diazepan-1-yl)-6-(1H-indazol-5-ylamino)pyrimidin-4-yl]phenol]
< 20		C[C@@H]1CN(c2nc(Nc3ccc4[nH]ncc4c3)cc(-c3cccc(O)c3)n2)C[C@H](C)O1 [Example 53, 3-[2-[(2R,6S)-2,6-dimethylmorpholin-4-yl]-6-(1H-indazol-5-ylamino)pyrimidin-4-yl]phenol]
